Consider one compound from PMC8558867, “Development of BromoTag: A “Bump-and-Hole”–PROTAC System to Induce Potent, Rapid, and Selective Degradation of Tagged Target Proteins” (Journal of Medicinal Chemistry, 2021).

The test system of this experiment is MV-4-11 cells. Nature of the experiment: CellTiter-Glo 2.0 cell viability assay, MV-4-11. To be noted: Homo sapiens, MV4-11; MV-4-11, 24 Hours, mean ±S.E.M, N = 2; read-out: pEC50 (cell viability) (converted). It counts as cell-based.

`CN[C@@H]1C[C@H]2O[C@@](C)([C@@H]1OC)n1c3ccccc3c3c4c(c5c6ccccc6n2c5c31)C(=O)NC4` [Staurosporine]: the EC50 is 6.31 nM.
